These are yes or no findings as the source states them, for the method shown. Binding calls can cover weak binding; strength is not graded here. Tags and fused reporters may be left off the sequences shown.
Key:
[1] = target: Enzymatically biotinylated uPAR immobilized on avidin-coated plate; assay: biotinylated uPAR on avidin-coated plate probed with CYTL1-AP, AP substrate
[2] = target: Enzymatically biotinylated uPAR immobilized on avidin-coated plate; assay: plate assay: enzymatically biotinylated uPAR on avidin-coated plate probed with CYTL1-AP conditioned medium, AP substrate

binding [1]: binds | binding [2]: binds
B1: Human CYTL1-alkaline phosphatase fusion protein (protein, not shown: large carriers)
chain: TPPTCYSRMRALSQEITRDFNLLQVSEPSEPCVRYLPRLYLDIHNYCVLDKLRDFVASPPCWKVAQVDSLKDKARKLYTIMNSFCRRDLVFLLDDCNALEYPIPVTTVLPDRQR

Source: US20090274695A1
